The values that follow come from PMC6172828.

By UniProt entry, the sequences of proteins in these tests, tags left out. Where a name states a change or a piece, a line headed by the entry shows the natural chain unless it says otherwise.
UniProt Q5DW34: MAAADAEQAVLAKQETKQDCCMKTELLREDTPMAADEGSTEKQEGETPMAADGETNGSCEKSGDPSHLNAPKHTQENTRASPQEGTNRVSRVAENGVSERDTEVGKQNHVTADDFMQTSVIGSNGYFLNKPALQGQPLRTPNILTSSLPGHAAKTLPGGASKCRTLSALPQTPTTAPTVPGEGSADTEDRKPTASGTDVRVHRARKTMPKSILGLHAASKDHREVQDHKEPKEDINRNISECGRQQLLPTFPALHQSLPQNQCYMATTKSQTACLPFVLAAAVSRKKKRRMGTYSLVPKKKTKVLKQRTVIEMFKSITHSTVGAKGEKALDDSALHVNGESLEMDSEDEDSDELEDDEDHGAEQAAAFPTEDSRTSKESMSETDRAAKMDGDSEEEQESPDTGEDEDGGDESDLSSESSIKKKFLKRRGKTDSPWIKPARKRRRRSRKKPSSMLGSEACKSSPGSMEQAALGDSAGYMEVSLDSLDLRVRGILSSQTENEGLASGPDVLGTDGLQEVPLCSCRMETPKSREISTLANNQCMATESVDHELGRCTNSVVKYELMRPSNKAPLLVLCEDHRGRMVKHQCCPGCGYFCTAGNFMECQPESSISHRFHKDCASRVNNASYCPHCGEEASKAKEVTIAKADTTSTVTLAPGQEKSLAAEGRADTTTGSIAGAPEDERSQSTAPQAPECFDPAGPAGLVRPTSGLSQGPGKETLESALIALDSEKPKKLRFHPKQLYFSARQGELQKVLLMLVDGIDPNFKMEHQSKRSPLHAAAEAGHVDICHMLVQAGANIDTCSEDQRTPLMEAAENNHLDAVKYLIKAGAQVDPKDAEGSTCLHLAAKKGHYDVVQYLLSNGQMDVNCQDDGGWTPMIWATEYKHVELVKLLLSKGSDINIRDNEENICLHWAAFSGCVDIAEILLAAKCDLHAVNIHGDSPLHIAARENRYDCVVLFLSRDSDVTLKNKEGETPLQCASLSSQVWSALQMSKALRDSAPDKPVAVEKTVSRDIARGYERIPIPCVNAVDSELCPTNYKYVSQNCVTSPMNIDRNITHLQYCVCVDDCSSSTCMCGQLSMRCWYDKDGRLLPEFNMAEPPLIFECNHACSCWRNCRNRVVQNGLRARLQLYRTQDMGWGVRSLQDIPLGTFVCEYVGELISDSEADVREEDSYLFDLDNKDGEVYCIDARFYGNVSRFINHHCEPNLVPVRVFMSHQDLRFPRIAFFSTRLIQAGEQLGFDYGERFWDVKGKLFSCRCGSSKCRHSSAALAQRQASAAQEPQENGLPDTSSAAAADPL

This assay deals with GST-fused mouse GLP catalytic SET-domain (mouse) (UniProt Q5DW34). The assay is described as follows: pull-down; GST pull-down after in vitro methylation: 4 µg recombinant proteins pre-incubated at 30 °C, SAM added for the indicated times; glutathione Sepharose in 20 mM Tris-HCl pH 7.5, 50 mM NaCl, 1 mM EDTA, 10% glycerol, 0.5% NP-40, 4 °C, 4 h; western blot; both purified. For orientation: A western blot detects proteins with antibodies after separation by electrophoresis.

These are yes or no findings as the source states them, for the method shown. A result given as binding can be weak or reduced; the word gives no strength. Tags and fused reporters may be left off the sequences shown.

B1: His and 3xFLAG-tagged ATF7IP (1–364), unmethylated (domain or fragment, UniProt Q7TT18 1-364)
chain: MDSVEEPQKKVFKARKTMRASDRQQLDAVHRVKGELLRADGKLLNGSHENGDLDPTSPLENTDCIQDREEVNGIDGICFQSEESTTEWKETPCMPNVAVKNKQEDLNSEALSPSITCDLSSRVTTEPGSGSPASDNPGCGTPVSDNPASDNPASDNPASDNPDSGDLAAGELATTVQATGDSACEEPPSSDPSSSDPTSSEPSSSEPTCSEPISGDPVSEEAASHDLVSGDSTCSEPVSGEPVSHEAASSEPATSEPASDEPVARVVAACELAPGESALDDCAPSGDSQSDEPPSSEDSLPRSVCSGLASGELTPGELSVEPATDTVKPSSSAVCEAGPDPDKTEPSSNNSDDCPGKSEDDEHL
Turning to B1, the binding result is given as “binds”.
